We go through 38 targets from the supplement of paper PMC11006884.

Chains of the proteins cited; added tags and fusions are not shown. Lines headed by an entry give the natural chain unless they say otherwise; changes in a name come on top.
UniProt P52888, whole entry, looked up: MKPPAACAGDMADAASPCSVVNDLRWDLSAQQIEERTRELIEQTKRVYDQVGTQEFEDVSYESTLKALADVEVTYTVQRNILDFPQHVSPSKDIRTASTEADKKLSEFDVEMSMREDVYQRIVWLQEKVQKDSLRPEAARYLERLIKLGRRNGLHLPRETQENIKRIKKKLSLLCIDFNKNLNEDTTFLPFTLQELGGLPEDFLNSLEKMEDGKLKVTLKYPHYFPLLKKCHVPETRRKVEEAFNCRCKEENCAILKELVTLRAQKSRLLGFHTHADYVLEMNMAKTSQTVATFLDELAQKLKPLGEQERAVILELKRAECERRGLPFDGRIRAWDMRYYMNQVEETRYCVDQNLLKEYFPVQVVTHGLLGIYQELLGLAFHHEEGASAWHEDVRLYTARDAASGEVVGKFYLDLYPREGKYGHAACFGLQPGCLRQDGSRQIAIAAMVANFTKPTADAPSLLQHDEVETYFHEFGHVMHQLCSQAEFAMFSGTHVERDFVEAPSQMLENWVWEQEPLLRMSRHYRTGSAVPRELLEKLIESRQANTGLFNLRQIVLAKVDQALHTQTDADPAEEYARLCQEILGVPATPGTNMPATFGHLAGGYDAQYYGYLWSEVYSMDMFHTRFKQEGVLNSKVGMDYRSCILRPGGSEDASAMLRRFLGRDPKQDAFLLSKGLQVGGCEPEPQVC
UniProt P60981: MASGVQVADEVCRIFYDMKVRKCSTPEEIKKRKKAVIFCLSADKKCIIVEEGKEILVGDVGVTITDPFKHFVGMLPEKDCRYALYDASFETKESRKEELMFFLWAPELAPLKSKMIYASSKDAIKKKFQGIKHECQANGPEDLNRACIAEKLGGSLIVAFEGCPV
UniProt P51659: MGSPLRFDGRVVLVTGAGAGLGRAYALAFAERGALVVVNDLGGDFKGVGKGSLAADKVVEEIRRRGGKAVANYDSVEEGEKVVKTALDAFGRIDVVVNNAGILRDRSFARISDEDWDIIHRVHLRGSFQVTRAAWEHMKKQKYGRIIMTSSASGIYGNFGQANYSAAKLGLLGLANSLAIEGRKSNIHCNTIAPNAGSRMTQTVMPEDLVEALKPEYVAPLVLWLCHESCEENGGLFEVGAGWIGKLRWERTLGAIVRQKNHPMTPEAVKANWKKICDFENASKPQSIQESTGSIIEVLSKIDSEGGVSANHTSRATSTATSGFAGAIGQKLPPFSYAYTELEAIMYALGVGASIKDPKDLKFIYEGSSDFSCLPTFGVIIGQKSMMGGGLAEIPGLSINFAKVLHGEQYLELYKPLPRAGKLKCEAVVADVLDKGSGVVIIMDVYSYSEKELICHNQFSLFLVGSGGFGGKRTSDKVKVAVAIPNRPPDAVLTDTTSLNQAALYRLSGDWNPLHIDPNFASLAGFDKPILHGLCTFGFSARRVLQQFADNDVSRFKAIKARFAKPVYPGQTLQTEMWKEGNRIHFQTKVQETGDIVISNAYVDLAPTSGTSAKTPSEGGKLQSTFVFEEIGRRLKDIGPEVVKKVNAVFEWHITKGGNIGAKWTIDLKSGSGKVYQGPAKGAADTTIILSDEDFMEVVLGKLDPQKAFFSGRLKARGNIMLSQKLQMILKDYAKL
UniProt P55265: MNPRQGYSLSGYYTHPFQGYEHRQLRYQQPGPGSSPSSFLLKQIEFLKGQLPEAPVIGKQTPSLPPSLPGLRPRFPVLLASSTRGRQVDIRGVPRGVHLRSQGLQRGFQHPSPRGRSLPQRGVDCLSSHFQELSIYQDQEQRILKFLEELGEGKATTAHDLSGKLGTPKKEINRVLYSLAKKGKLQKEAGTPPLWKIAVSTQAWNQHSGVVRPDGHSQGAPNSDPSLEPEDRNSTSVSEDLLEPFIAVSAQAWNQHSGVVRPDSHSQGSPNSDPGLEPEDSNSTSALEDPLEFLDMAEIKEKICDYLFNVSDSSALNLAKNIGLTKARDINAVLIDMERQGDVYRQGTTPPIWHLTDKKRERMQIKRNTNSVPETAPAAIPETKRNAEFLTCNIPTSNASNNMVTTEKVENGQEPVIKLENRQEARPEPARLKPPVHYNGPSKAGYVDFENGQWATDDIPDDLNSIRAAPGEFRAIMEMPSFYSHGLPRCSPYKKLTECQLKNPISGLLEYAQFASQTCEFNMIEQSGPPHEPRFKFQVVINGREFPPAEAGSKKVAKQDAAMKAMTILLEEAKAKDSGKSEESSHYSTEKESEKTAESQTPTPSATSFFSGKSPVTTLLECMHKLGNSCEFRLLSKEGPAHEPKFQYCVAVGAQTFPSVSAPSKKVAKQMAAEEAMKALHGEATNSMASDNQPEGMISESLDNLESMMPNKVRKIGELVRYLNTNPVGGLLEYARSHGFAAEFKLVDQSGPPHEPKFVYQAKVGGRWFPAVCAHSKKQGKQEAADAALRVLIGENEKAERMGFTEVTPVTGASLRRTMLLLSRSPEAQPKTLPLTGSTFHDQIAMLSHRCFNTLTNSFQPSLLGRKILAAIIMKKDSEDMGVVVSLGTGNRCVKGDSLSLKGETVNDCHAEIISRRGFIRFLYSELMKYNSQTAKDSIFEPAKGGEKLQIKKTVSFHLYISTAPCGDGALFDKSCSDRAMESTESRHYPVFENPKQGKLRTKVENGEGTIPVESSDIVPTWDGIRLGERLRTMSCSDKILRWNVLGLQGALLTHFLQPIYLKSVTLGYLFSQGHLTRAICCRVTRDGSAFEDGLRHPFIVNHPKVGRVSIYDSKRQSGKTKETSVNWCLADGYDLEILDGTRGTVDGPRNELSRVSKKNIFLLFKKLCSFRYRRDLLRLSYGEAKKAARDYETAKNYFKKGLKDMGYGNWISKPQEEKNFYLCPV
UniProt P60174, whole entry, looked up: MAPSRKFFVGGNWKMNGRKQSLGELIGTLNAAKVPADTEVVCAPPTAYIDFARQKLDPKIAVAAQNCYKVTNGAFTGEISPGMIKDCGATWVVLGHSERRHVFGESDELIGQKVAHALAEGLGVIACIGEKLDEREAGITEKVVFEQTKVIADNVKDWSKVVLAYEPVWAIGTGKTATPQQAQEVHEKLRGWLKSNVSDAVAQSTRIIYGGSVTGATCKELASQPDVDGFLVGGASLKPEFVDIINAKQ
UniProt P51957: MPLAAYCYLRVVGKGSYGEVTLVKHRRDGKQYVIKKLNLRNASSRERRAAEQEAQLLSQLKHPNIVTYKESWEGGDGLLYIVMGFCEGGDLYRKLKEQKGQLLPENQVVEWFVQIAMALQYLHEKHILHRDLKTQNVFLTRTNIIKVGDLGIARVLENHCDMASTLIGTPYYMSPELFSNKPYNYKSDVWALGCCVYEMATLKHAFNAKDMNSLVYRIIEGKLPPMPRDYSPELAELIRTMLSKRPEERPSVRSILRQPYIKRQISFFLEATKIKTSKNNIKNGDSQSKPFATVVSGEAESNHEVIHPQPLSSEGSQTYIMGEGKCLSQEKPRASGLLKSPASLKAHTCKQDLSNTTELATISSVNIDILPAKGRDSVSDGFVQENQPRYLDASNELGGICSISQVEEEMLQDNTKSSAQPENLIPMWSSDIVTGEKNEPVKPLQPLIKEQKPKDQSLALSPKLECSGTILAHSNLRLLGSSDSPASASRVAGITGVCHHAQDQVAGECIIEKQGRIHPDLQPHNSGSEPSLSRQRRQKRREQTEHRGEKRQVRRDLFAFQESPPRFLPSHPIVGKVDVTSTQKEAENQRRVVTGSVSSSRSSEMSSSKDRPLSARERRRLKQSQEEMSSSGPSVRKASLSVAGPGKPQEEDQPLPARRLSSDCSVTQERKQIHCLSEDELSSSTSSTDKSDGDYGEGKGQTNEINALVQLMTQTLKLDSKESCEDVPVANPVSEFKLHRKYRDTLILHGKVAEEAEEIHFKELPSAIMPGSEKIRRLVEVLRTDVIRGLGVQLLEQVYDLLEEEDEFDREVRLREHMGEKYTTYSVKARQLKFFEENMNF
UniProt P55210: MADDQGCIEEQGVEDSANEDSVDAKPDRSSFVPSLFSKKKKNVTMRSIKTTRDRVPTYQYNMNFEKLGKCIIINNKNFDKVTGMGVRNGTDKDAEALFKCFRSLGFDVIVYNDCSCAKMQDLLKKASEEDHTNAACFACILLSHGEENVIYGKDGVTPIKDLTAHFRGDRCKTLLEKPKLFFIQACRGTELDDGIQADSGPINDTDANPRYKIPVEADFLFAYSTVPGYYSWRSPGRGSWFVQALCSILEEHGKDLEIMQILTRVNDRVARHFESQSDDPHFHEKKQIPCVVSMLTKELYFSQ
UniProt P56182: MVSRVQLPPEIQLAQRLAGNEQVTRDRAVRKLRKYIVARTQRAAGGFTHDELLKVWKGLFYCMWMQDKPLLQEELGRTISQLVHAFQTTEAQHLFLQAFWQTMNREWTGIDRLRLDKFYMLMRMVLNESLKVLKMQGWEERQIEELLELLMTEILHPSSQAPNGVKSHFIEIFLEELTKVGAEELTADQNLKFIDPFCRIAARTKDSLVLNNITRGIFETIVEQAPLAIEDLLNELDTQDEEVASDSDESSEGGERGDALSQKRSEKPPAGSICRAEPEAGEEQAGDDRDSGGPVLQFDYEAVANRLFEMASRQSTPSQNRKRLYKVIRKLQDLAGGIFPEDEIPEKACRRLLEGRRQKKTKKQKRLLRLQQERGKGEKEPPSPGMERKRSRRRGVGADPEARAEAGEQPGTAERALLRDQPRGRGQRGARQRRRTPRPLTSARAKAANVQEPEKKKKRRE
UniProt P53611: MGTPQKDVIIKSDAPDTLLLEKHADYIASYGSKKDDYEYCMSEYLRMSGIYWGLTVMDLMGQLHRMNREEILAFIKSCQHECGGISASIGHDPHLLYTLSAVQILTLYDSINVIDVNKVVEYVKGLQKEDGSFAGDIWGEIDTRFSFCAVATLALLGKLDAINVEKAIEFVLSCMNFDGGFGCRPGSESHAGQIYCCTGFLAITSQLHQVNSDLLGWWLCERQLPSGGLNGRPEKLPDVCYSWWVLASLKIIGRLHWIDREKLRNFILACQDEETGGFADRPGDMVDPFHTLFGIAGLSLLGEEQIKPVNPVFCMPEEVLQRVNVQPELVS
UniProt P55211: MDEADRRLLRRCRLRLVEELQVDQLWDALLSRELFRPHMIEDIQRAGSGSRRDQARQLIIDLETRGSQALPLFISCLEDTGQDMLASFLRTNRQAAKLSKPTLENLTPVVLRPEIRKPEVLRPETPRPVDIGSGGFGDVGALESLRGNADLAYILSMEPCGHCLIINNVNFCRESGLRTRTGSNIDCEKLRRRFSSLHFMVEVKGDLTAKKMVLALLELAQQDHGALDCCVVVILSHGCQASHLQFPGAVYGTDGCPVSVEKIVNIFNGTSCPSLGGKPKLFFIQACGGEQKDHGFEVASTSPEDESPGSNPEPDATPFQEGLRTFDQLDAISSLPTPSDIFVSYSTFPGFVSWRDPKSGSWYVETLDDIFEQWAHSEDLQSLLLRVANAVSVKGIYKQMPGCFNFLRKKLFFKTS
UniProt P55072, whole entry, looked up: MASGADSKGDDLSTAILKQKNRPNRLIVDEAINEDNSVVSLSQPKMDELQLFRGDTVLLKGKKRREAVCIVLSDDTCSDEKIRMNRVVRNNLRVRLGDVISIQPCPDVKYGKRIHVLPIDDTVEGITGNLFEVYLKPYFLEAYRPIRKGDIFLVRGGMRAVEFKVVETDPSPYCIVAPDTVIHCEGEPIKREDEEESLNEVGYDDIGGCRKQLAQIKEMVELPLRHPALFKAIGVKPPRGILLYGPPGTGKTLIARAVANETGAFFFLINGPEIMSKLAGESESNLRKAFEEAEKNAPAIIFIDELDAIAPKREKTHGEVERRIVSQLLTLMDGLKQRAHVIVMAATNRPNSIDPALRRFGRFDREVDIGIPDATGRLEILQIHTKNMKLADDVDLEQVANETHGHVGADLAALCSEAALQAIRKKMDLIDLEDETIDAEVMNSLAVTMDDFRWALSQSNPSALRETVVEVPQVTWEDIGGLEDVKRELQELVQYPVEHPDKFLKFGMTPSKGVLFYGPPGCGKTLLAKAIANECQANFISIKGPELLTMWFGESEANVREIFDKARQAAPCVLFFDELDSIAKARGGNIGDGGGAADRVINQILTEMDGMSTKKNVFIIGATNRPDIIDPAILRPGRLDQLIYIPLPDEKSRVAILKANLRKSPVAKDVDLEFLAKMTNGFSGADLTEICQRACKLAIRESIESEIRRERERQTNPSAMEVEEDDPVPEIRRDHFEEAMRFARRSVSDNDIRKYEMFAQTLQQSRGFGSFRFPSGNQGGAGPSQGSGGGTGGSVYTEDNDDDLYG
UniProt P60891: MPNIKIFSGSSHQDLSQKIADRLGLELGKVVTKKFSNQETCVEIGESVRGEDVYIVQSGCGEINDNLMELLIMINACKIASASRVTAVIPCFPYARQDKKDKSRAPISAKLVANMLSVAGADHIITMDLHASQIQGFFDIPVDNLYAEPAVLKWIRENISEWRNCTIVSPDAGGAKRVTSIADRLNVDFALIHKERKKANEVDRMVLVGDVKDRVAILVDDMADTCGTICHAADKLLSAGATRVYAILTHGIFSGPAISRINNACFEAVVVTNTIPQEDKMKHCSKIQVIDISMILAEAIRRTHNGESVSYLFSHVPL

The targets with a hit were mostly taken out for another list; the other results follow. The data scatter; read single values as rough. This is a selection; strong and weak results do not stand in their true shares.

Compound in this experiment: COC(=O)/C=C/c1ccccc1 [methyl cinnamate]
Briefly: log2 ratio of iodoacetamide-alkyne labeling of the cysteine site, DMSO over compound (competition); higher = stronger covalent engagement of the cysteine by the compound, active = 1 or more. The conditions noted are these: 500 µM; treatment time 1 h; system: HEK293T cell lysate. The gist of the method: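 After 1 h at ambient temperature with vehicle or electrophile (500 µM), HEK293T lysate (2 mg/mL) was labelled for 1 h with iodoacetamide alkyne and clicked to sCIP-TMT reagents. Pooled samples were trypsin-digested overnight at 37 °C, streptavidin-enriched, acid-eluted and analysed by Orbitrap Eclipse LC-MS/MS with FAIMS, then quantified in FragPipe over three replicates with duplicate channels. A cysteine's log2 competition ratio is its mean control-channel over mean compound-channel reporter intensity. Cysteines quantified in only one replicate were not included.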
THOP1 C689 (UniProt P52888): the “log2 ratio of iodoacetamide-alkyne labeling” value (“log2 ratio” below) was inactive: 0.378.

Turning to HK2 C158 (UniProt P52789), the “log2 ratio” value was inactive: 0.0472. As to EIF6 C11 (UniProt P56537), the “log2 ratio” value was inactive: 0.211. UniProt P61927_C37: the “log2 ratio” value was inactive: 0.103. Turning to CTBP2 C318 (UniProt P56545), the “log2 ratio” value was inactive: -0.0746. As for UniProt P60228_C250, the “log2 ratio” value was inactive: 0.477. On to UniProt P55196_C324, for which the “log2 ratio” value was inactive: 0.265. Regarding RARS C32 (UniProt P54136), the “log2 ratio” value was inactive: 0.313. In the case of DSTN C12 (UniProt P60981), the “log2 ratio” value is inactive: 0.178.

On to GEMIN4 C382 (UniProt P57678), for which the “log2 ratio” value is inactive: 0.224. Turning to CMC4 C12 (UniProt P56277), the “log2 ratio” value was inactive: 0.649.

In the case of AP3M2 C29 (UniProt P53677), the “log2 ratio” value is inactive: 0.196. Regarding PPP5C C11 (UniProt P53041), the “log2 ratio” value was inactive: 0.311.

Consider UniProt P61160_C221, for which the “log2 ratio” value was inactive: 0.62.

With ACTR3 C235 (UniProt P61158), the “log2 ratio” value was inactive: 0.352. To UniProt P61927_C19 belongs inactive: 0.129; to HSD17B4 C535 (UniProt P51659), inactive: -0.152. With HK2 C628 (UniProt P52789), the “log2 ratio” value was inactive: 0.275.

As to CTBP2 C44 (UniProt P56545), the “log2 ratio” value is inactive: 0.408. To ADAR C630 (UniProt P55265) belongs inactive: 0.156; to TPI1 C164 (UniProt P60174), inactive: -0.243; to NEK4 C401 (UniProt P51957), inactive: -0.18. To CASP7 C7 (UniProt P55210) belongs inactive: 0.217; to EIF3B C420 (UniProt P55884), inactive: -0.0155; to ADAR C622 (UniProt P55265), inactive: 0.0381. For the target RRP1 C274 (UniProt P56182), the “log2 ratio” value is inactive: 0.339.

As to NUP107 C78 (UniProt P57740), the “log2 ratio” value is inactive: 0.208. Consider RABGGTB C40 (UniProt P53611), for which the “log2 ratio” value is inactive: 0.198. Then CASP9 C287 (UniProt P55211), with inactive: 0.212; and RPS3A C96 (UniProt P61247), with inactive: 0.0771. Turning to ADAR C499 (UniProt P55265), the “log2 ratio” value is inactive: 0.18.

Take SRP54 C136 (UniProt P61011): the “log2 ratio” value was inactive: 0.0913. In the case of DSTN C135 (UniProt P60981), the “log2 ratio” value is inactive: 0.213. Take UniProt P55072_C691: the “log2 ratio” value was inactive: -0.0827. With DSTN C23 (UniProt P60981), the “log2 ratio” value was inactive: 0.302. As to UniProt P55196_C1742, the “log2 ratio” value was inactive: 0.569. To BLM C704 (UniProt P54132) belongs inactive: 0.139; to UniProt P60891_C265, inactive: -0.08.
